Data published in PMC4021842.
No constants are given. Whether binding was seen depends on the method and setting. In cells and extracts the contact can be indirect. Some entries that bind do so weakly or less than the wild type.

The chains behind the UniProt entries cited, without tags or fusion partners.
UniProt Q9Y6Q9: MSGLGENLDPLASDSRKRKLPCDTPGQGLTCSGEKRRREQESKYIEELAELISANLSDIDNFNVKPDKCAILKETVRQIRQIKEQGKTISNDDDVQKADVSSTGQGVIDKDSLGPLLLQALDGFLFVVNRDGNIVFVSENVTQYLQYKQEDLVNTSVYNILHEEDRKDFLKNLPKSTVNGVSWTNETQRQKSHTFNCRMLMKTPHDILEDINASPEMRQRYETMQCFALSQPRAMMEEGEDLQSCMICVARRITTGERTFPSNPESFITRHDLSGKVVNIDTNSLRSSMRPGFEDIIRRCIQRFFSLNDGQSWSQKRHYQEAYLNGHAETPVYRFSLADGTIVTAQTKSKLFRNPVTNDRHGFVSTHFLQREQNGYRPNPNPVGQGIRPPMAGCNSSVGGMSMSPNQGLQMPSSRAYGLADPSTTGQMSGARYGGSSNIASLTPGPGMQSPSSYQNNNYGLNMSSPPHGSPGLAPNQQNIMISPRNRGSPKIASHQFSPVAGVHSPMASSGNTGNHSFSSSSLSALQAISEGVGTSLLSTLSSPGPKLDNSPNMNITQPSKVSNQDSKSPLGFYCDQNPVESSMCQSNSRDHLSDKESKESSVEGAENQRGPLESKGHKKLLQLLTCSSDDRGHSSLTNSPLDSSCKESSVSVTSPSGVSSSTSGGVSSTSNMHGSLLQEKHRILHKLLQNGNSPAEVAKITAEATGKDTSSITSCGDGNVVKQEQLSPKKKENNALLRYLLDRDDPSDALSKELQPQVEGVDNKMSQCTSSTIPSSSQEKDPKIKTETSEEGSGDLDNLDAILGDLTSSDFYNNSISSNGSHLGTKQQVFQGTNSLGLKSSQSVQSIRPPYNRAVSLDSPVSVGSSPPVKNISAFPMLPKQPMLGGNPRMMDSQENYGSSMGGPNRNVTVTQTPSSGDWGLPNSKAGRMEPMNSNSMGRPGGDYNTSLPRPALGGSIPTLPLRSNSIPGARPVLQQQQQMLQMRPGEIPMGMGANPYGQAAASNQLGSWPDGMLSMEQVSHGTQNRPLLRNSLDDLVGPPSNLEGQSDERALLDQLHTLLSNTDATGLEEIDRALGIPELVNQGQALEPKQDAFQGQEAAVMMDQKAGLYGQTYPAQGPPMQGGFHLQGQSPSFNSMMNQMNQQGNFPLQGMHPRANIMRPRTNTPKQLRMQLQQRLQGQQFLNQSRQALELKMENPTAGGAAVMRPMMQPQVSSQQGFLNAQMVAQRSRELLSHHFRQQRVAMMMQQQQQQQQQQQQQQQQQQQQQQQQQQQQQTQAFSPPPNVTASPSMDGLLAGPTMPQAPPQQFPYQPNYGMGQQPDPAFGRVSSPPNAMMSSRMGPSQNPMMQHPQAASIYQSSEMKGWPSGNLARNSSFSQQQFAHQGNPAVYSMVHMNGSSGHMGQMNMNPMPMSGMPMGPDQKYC

Biological target: T1, IKKβ (UniProt O14920)
T1 sequence: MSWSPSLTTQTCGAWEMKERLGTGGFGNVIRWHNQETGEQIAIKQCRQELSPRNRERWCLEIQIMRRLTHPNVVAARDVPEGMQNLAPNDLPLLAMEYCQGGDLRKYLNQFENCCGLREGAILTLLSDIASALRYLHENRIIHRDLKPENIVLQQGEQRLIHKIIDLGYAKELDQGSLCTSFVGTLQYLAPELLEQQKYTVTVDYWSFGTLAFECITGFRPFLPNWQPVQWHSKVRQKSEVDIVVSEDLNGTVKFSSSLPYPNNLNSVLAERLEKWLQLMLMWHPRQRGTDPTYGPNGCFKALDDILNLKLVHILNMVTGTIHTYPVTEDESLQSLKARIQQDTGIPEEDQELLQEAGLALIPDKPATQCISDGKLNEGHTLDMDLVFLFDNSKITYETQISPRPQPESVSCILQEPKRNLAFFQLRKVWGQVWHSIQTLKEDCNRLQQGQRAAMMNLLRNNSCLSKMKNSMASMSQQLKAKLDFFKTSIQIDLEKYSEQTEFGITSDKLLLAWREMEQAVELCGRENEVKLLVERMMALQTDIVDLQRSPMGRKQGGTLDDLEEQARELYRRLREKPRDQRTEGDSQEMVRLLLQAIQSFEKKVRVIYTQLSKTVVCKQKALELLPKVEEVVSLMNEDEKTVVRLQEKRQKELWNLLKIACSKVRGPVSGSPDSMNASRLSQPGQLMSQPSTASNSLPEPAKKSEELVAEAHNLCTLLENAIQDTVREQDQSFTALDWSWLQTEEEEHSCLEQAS
Assay: co-IP; 293 T cell lysates immunoprecipitated by correspondent antibodies or control IgG, extensive washing, Western blotting; bait not stated

binding: binds
Substance: Steroid receptor coactivator 3 (SRC-3) (from UniProt Q9Y6Q9 1-1424)
